Consider one molecule from PMC7935258.

Results are given in words; binding and its absence hold for the method and conditions named. Binding seen in cells or lysates may run through a third protein. Some results given as binding are weak or reduced against the parent protein; the word gives no strength. Tags and fused reporters may be left off the sequences shown.

The experiment concerns the target T1, GST-tagged TPR2 (Arabidopsis) (UniProt Q9LRZ0).
T1 sequence: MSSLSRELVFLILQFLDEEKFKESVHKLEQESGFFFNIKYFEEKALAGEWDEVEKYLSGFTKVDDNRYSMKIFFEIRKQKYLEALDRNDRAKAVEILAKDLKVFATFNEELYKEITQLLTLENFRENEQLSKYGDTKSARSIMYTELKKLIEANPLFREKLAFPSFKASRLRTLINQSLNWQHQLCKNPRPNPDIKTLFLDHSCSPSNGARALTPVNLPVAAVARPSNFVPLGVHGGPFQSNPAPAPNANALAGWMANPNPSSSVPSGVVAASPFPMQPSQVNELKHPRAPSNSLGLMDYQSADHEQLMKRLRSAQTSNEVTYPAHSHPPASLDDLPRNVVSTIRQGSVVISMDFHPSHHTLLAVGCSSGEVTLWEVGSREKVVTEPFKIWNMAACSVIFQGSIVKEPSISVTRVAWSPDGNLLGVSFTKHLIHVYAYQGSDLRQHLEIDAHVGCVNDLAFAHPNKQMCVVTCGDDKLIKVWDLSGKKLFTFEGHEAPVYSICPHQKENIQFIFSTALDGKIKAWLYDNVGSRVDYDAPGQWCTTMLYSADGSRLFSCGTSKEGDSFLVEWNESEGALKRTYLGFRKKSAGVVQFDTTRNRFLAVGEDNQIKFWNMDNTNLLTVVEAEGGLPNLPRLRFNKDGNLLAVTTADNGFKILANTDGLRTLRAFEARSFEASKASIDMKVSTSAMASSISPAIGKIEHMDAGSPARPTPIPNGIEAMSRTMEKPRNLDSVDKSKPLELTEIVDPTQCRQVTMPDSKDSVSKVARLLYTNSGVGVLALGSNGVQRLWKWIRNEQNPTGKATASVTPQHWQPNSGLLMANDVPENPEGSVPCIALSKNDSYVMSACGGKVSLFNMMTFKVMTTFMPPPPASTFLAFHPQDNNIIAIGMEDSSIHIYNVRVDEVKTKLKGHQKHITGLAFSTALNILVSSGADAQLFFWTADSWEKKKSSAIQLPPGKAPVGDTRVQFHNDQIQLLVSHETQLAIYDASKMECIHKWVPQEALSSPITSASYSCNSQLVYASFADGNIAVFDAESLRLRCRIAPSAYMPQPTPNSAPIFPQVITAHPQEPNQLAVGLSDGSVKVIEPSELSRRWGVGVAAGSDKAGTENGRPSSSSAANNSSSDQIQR
The experiment can be described thus: pull-down; GST-TPR2 or GST from E. coli extract bound to GST beads (4°C, 1.5 h), washed 3 times with PBS; soluble T7-SNC1-TIR extract added, 4°C, 1 h; washed with PBS; blot with anti-GST and anti-T7; only the target purified.

B1: His-T7-SNC1 TIR (domain or fragment, UniProt O23530 1-182)
chain: MMDTSKDDDMEIASSSGSRRYDVFPSFRGEDVRDSFLSHLLKELRGKAITFIDDEIERSRSIGPELLSAIKESRIAIVIFSKNYASSTWCLNELVEIHKCYTNLNQMVIPIFFHVDASEVKKQTGEFGKVFEETCKAKSEDEKQSWKQALAAVAVMAGYDLRKWPSEAAMIEELAEDVLRKT
For the molecule B1, the binding result was “binds”.
